Measured values as given in the supplement of paper PMC10331698.
± gives the standard deviation of the averaged measurements. Small differences around the control level are noise.

Tests used:
Assay in all cases: level (log10 ratio to DMSO vehicle control); higher = higher biomarker level / cell amount than vehicle control
[1] = compound: C=C(C)C(=O)OCCC(F)(F)C(F)(F)C(F)(F)C(F)(F)C(F)(C(F)(F)F)C(F)(F)F [(Perfluoro-5-methylhexyl)ethyl 2-methylprop-2-enoate]; details: in DMSO
Method: (§1)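 BioMAP Diversity Plus panel of 12 human primary cell co-culture systems (3C, 4H, LPS, SAg, BT, BF4T, BE3C, CASM3C, HDF3CGF, KF3CT, MyoF, Mphg). Compounds were added 1 h before stimulation and left for 24 h (MyoF 48 h; BT 72 h for soluble read-outs or 6 d for IgG). Biomarkers were read by ELISA, cytotoxicity by SRB, PBMC viability and proliferation by Alamar Blue. Each well value was divided by the mean of 8 DMSO control wells on the same plate and log10 transformed; duplicate blinded samples were tested at 4 concentrations.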

Nonafluoropentanamide = compound: NC(=O)C(F)(F)C(F)(F)C(F)(F)C(F)(F)F [Nonafluoropentanamide]; details: 2200 nM; in DMSO
Method: as §1

[2] = compound: COC(=O)CCC(F)(F)C(F)(F)C(F)(F)C(F)(F)F [Methyl 2H,2H,3H,3H-perfluoroheptanoate]; details: 2200 nM; in DMSO
Method: as §1

[3] = compound: NS(=O)(=O)C(F)(F)C(F)(F)C(F)(F)C(F)(F)C(F)(F)C(F)(F)F [Perfluorohexanesulfonamide]; details: 2200 nM; in DMSO
Method: as §1

[4] = compound: FC(F)(F)C(F)(F)C(F)(F)C(F)(F)C(F)(F)CCI [1-Iodo-1H,1H,2H,2H-perfluoroheptane]; details: 2200 nM; in DMSO
Method: as §1

[5] = compound: OCCC(F)(F)C(F)(F)C(F)(F)C(F)(F)F [4:2 Fluorotelomer alcohol]; details: 2200 nM; in DMSO
Method: as §1

[6] = compound: O=S(=O)(O)C(F)(F)C(F)(F)OC(F)(F)C(F)(F)F [Perfluoro(2-ethoxyethane)sulfonic acid]; details: 2200 nM; in DMSO
Method: as §1

Perfluoropinacol = compound: OC(C(F)(F)F)(C(F)(F)F)C(O)(C(F)(F)F)C(F)(F)F [Perfluoropinacol]; details: in DMSO
Method: as §1

Tetrafluorosuccinic acid = compound: O=C(O)C(F)(F)C(F)(F)C(=O)O [Tetrafluorosuccinic acid]; details: 2200 nM; in DMSO
Method: as §1

Octafluoroadipamide = compound: NC(=O)C(F)(F)C(F)(F)C(F)(F)C(F)(F)C(N)=O [Octafluoroadipamide]; details: 2200 nM; in DMSO
Method: as §1

[7] = compound: O=C(O)CCC(F)(F)C(F)(F)C(F)(F)C(F)(F)C(F)(F)F [2H,2H,3H,3H-Perfluorooctanoic acid]; details: 2200 nM; in DMSO
Method: as §1

[8] = compound: O=C(O)C(F)(F)C(F)(F)C(F)(F)C(F)(F)C(F)(F)C(F)(F)C(F)(F)C(F)(F)Cl [9-Chloro-perfluorononanoic acid]; details: in DMSO
Method: as §1

[9] = compound: C=C(C)C(=O)OCCC(F)(F)C(F)(F)C(F)(F)C(F)(F)C(F)(F)C(F)(F)C(F)(F)C(F)(F)F [8:2 Fluorotelomer methacrylate]; details: in DMSO
Method: as §1

[10] = compound: O=S(=O)(O)CCC(F)(F)C(F)(F)C(F)(F)C(F)(F)C(F)(F)C(F)(F)F [6:2 Fluorotelomer sulfonic acid]; details: in DMSO
Method: as §1

Test System	level (log10) ([1]; 740 nM)	level (log10) ([1]; 2200 nM)	level (log10) ([1]; 6700 nM)	level (log10) ([1]; 20000 nM)	level (log10) (Nonafluoropentanamide)	level (log10) [2]	level (log10) [3]	level (log10) [4]	level (log10) [5]	level (log10) [6]	level (log10) (Perfluoropinacol; 2200 nM)	level (log10) (Perfluoropinacol; 6700 nM)	level (log10) (Perfluoropinacol; 20000 nM)	level (log10) (Tetrafluorosuccinic acid)	level (log10) (Octafluoroadipamide)	level (log10) [7]	level (log10) ([8]; 2200 nM)	level (log10) ([8]; 6700 nM)	level (log10) ([8]; 20000 nM)	level (log10) ([9]; 740 nM)	level (log10) ([9]; 2200 nM)	level (log10) ([10]; 2200 nM)	level (log10) ([10]; 6700 nM)	level (log10) ([10]; 20000 nM)	level (log10) ([10]; 60000 nM)
4H:VEGFR2	0.0075 ± 0.0064	0.018 ± 0.013	-0.0185 ± 0.037	-0.0115 ± 0.033	-0.013 ± 0.054	0.0695 ± 0.03	0.028 ± 0.051	-0.001 ± 0.068	0.0305 ± 0.0021	-0.011 ± 0.016	0.0365 ± 0.08	-0.02 ± 0.023	-0.138 ± 0.064	0.005 ± 0.059	0.03 ± 0.02	0.0575 ± 0.028	-0.048 ± 0.02	-0.108 ± 0.011	-0.0395 ± 0.013	0.023 ± 0.02	-0.015 ± 0.0014	0.0325 ± 0.0078	-0.0215 ± 0.012	-0.101 ± 0.0064	-0.026 ± 0.021
4H:CCL2/MCP-1	-0.013 ± 0.017	-0.014 ± 0.0014	-0.0135 ± 0.011	0.002 ± 0.0042	-0.0205 ± 0.012	-0.0045 ± 0.06	0.027 ± 0.088	0.011 ± 0.018	-0.0135 ± 0.042	0.013 ± 0.018	0.014 ± 0.05	-0.058 ± 0.023	-0.168 ± 0.025	-0.0145 ± 0.0078	0.011 ± 0.061	0.0125 ± 0.016	0.004 ± 0.045	-0.001 ± 0.014	-0.0245 ± 0.0035	-0.0105 ± 0.063	-0.008 ± 0.071	-0.0055 ± 0.05	-0.0135 ± 0.056	0.0065 ± 0.029	-0.02 ± 0.011
CASM3C:CD106/VCAM-1	-0.021 ± 0.018	-0.018 ± 0.025	-0.017 ± 0.014	-0.0175 ± 0.026	-0.013 ± 0.02	-0.0195 ± 0.005	-0.0135 ± 0.018	0.003 ± 0.023	0.01 ± 0.0099	0.003 ± 0.011	-0.0065 ± 0.019	-0.028 ± 0.0042	-0.0385 ± 0.015	0.0115 ± 0.0021	-0.0025 ± 0.047	-0.0085 ± 0.005	-0.014 ± 0.0028	-0.029 ± 0.0014	-0.027 ± 0.016	0.007 ± 0.051	0.0095 ± 0.028	-0.016 ± 0.023	-0.008 ± 0.011	-0.0325 ± 0.022	-0.0605 ± 0.026
LPS:CD69	0.087 ± 0.033	-0.002 ± 0.011	-0.019 ± 0.069	-0.0145 ± 0.08	-0.022 ± 0.047	0.0075 ± 0.057	-0.002 ± 0.0042	0.002 ± 0.0028	-0.0025 ± 0.046	0.0035 ± 0.0021	-0.0455 ± 0.015	-0.105 ± 0.063	-0.192 ± 0.064	0.009 ± 0.041	-0.0075 ± 0.091	-0.022 ± 0.058	-0.015 ± 0.021	-0.0335 ± 0.026	-0.063 ± 0.028	-0.029 ± 0.0071	-0.0255 ± 0.033	-0.025 ± 0.064	-0.0315 ± 0.037	-0.033 ± 0.055	-0.111 ± 0.057
3C:Proliferation	-0.0305 ± 0.063	0.006 ± 0.0028	0.004 ± 0.052	-0.0305 ± 0.0021	-0.0155 ± 0.029	-0.0575 ± 0.03	-0.0255 ± 0.039	-0.003 ± 0.044	-0.0465 ± 0.046	-0.0145 ± 0.019	-0.0155 ± 0.0064	-0.151 ± 0.0028	-0.441 ± 0.086	-0.025 ± 0.034	-0.0175 ± 0.013	-0.0405 ± 0.0078	0.013 ± 0.051	0.016 ± 0.079	0.019 ± 0.041	0.0175 ± 0.047	0.003 ± 0.057	-0.0005 ± 0.026	0.0055 ± 0.0021	0.012 ± 0.027	0.0305 ± 0.039
KF3CT:IL-1alpha	-0.0145 ± 0.0021	-0.003 ± 0.021	-0.014 ± 0.0028	-0.0225 ± 0.0035	0.0065 ± 0.018	0.011 ± 0.055	0.0145 ± 0.026	0.004 ± 0.0099	-0.0025 ± 0.037	-0.0245 ± 0.018	0.017 ± 0.013	0.0765 ± 0.028	0.155 ± 0.032	0.0185 ± 0.021	0.0035 ± 0.022	-0.04 ± 0.0085	0.0005 ± 0.018	-0.0295 ± 0.042	-0.056 ± 0.031	-0.0375 ± 0.005	-0.024	-0.0165 ± 0.0092	0.0115 ± 0.016	0.0005 ± 0.016	-0.0255 ± 0.039
3C:SRB	-0.0005 ± 0.005	0.006 ± 0.0028	-0.008 ± 0.0042	-0.0175 ± 0.0078	0.0015 ± 0.0092	0.013 ± 0.024	-0.004 ± 0.0028	-0.007 ± 0.0028	0.0025 ± 0.0035	-0.0195 ± 0.013	-0.005 ± 0.011	-0.0665 ± 0.013	-0.188 ± 0.0028	-0.005 ± 0.0071	-0.0245 ± 0.026	-0.0045 ± 0.016	0.0005 ± 0.0078	-0.0005 ± 0.005	-0.0165 ± 0.0035	-0.0045 ± 0.00071	-0.0135 ± 0.0092	0.002	0.001 ± 0.0099	0.002 ± 0.0057	-0.0045 ± 0.028
KF3CT:CCL2/MCP-1	-0.0035 ± 0.005	-0.0075 ± 0.0092	-0.0235 ± 0.0092	-0.0125 ± 0.037	-0.002 ± 0.04	0.009 ± 0.071	-0.02 ± 0.016	-0.0185 ± 0.019	-0.0265 ± 0.0064	0.009 ± 0.02	0.0145 ± 0.0092	0.0955 ± 0.013	0.211 ± 0.024	-0.0145 ± 0.028	0.001 ± 0.059	-0.0015 ± 0.035	0.0275 ± 0.066	0.004 ± 0.023	0.036 ± 0.035	0.007 ± 0.023	-0.0195 ± 0.012	-0.0005 ± 0.036	0.0125 ± 0.00071	0.0035 ± 0.013	-0.0145 ± 0.043

Whole records, quoted from the list. Order of values: level (log10) ([1]; 740 nM)	level (log10) ([1]; 2200 nM)	level (log10) ([1]; 6700 nM)	level (log10) ([1]; 20000 nM)	level (log10) (Nonafluoropentanamide)	level (log10) [2]	level (log10) [3]	level (log10) [4]	level (log10) [5]	level (log10) [6]	level (log10) (Perfluoropinacol; 2200 nM)	level (log10) (Perfluoropinacol; 6700 nM)	level (log10) (Perfluoropinacol; 20000 nM)	level (log10) (Tetrafluorosuccinic acid)	level (log10) (Octafluoroadipamide)	level (log10) [7]	level (log10) ([8]; 2200 nM)	level (log10) ([8]; 6700 nM)	level (log10) ([8]; 20000 nM)	level (log10) ([9]; 740 nM)	level (log10) ([9]; 2200 nM)	level (log10) ([10]; 2200 nM)	level (log10) ([10]; 6700 nM)	level (log10) ([10]; 20000 nM)	level (log10) ([10]; 60000 nM)
KF3CT:IL-1alpha in the list: -0.0145 ± 0.0021	-0.003 ± 0.021	-0.014 ± 0.0028	-0.0225 ± 0.0035	0.0065 ± 0.018	0.011 ± 0.055	0.0145 ± 0.026	0.004 ± 0.0099	-0.0025 ± 0.037	-0.0245 ± 0.018	0.017 ± 0.013	0.0765 ± 0.028	0.155 ± 0.032	0.0185 ± 0.021	0.0035 ± 0.022	-0.04 ± 0.0085	0.0005 ± 0.018	-0.0295 ± 0.042	-0.056 ± 0.031	-0.0375 ± 0.005	-0.024	-0.0165 ± 0.0092	0.0115 ± 0.016	0.0005 ± 0.016	-0.0255 ± 0.039
3C:Proliferation in the list: -0.0305 ± 0.063	0.006 ± 0.0028	0.004 ± 0.052	-0.0305 ± 0.0021	-0.0155 ± 0.029	-0.0575 ± 0.03	-0.0255 ± 0.039	-0.003 ± 0.044	-0.0465 ± 0.046	-0.0145 ± 0.019	-0.0155 ± 0.0064	-0.151 ± 0.0028	-0.441 ± 0.086	-0.025 ± 0.034	-0.0175 ± 0.013	-0.0405 ± 0.0078	0.013 ± 0.051	0.016 ± 0.079	0.019 ± 0.041	0.0175 ± 0.047	0.003 ± 0.057	-0.0005 ± 0.026	0.0055 ± 0.0021	0.012 ± 0.027	0.0305 ± 0.039
